No constants are given. Whether binding was seen depends on the method and setting.
Legend:
Experiment in all cases: capture ELISA: NI-0801 coated, concentration range of NusA fusion protein, revealed with anti-NusA antibody
[1] = target: cyMIG (cynomolgus (prefix cy, as in cyIP-10))
[2] = target: cyRantes (cynomolgus (prefix cy, as in cyIP-10))
huMIPa (human) = target: huMIPa (human)
huMIPb (human) = target: huMIPb (human)
huRantes (human) = target: huRantes (human)
[3] = target: moRantes (mouse (prefix mo, as in moIP-10))

Measured: binding

B1: NI-0801, IgG1 format (antibody, V domains shown)
VH: QVQLVESGGGVVQPGRSLRLSCAASGFTFSNSGIHWVRQAPGKGLEWVAVISYDGSNKYYADSVKGRFTISRDNSKNTLYLQMNSLRAEDTAVYYCARLRDNAEYTDYWGQGTLVTVSS
VL: NFMLTQPHSVSESPGKTVTISCTGSGGSIASNYVQWYQQRPGSSPTTVIYEDNQRPSGVPDRFSGSIDSSSNSASLTISGLKTEDEADYYCQSYDPLPVWVFGGGTKLTVLG
no binding (tested: about 2e-7 M): all assays above
